Results deposited as PubChem BioAssay AID504793 (Drosophila RNAi Screening Center, 2011).
The deposit covers about 23,000 reagents; shown is a random part of those that have a named target and a result. Over the whole deposit, 62 (0.27%) are marked active. 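Calls come from follow-up tests whose scores are not deposited, so confirmed genes may have low counts here; counts are not normalised per plate.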 Raw values are not corrected between plates. Names joined by + are all predicted targets of the reagent.

- Aim: 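Knock-downs allowing continued mitosis even though DNA is damaged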 (primary screen)
- Cells: Drosophila S2R+ cells
- Reagent: long dsRNA against Drosophila genes, about 0.25 µg dsRNA per well
- Duration: 4 days of dsRNA, then 4 hours of drug before read-out
- Challenge: doxorubicin 0.5 µM for 4 hours to cause double-strand breaks, in cells also given a low, harmless dose of dsRNA against nbs to sensitise the assay
- Measured: 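Mitotic index as the number of phospho-histone H3-positive cells in each well following doxorubicin, given as raw counts without normalisation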
- Reading the numbers: mitotic cells: higher = more cells in mitosis, weaker G2 arrest
- Call rule: 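a call needs confirmation in secondary tests, with other dsRNAs and a check of mitotic timing without damage, not just a high primary count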
- Meaning of the calls: active = confirmed in follow-up tests; inactive = not confirmed

| gene | DRSC id | mitotic cells, replicate 1 | call |
| --- | --- | --- | --- |
| Clc (Clathrin light chain) | DRSC11116 | 7 | inactive |
| Clc (Clathrin light chain) | DRSC25617 | – | inactive |
| SA1 (Stromalin 1) | DRSC03424 | 8 | inactive |
| SA1 (Stromalin 1) | DRSC28222 | 10 | inactive |
| CG33003 | DRSC22419 | 7 | inactive |
| CG33003 | DRSC26346 | 8 | inactive |
| CG9109 | DRSC03139 | 3 | inactive |
| CG9109 | DRSC26398 | 8 | inactive |
| CG14662 | DRSC12248 | 1 | inactive |
| Smyd3 (SET and MYND domain containing, class 3) | DRSC17744 | 13 | inactive |
| Smyd3 (SET and MYND domain containing, class 3) | DRSC26723 | 8 | inactive |
| CG33172 | DRSC21793 | 3 | inactive |
| tpr (tracheal-prostasin) | DRSC04468 | 3 | inactive |
| tpr (tracheal-prostasin) | DRSC28107 | 5 | inactive |
| CG6885 | DRSC10740 | – | inactive |
| pho (pleiohomeotic) | DRSC17219 | 22 | inactive |
| pho (pleiohomeotic) | DRSC37622 | 13 | inactive |
| CG4714 | DRSC06883 | 4 | inactive |
| CG1847 | DRSC19810 | 6 | inactive |
| Spindly | DRSC00430 | 292 | inactive |
| Taf2 (TBP-associated factor 2) | DRSC11298 | 7 | inactive |
| Taf2 (TBP-associated factor 2) | DRSC26215 | 10 | inactive |
| CG32440 | DRSC11480 | 3 | inactive |
| CG8539 | DRSC10988 | 2 | inactive |
| CG8539 | DRSC21798 | 4 | inactive |
| CG8539 | DRSC28192 | 7 | inactive |
| CG1951 | DRSC15403 | 6 | inactive |
| Nazo | DRSC14343 | 5 | inactive |
| NPF (neuropeptide F) | DRSC17019 | 4 | inactive |
| CG3339 | DRSC13821 | 14 | inactive |
| CG3339 | DRSC15479 | 8 | inactive |
| CadN2 + CG42830 | DRSC03062 | 5 | inactive |
| CadN2 + CG42830 | DRSC03063 | 4 | inactive |
| CadN2 + CG42830 | DRSC03064 | 7 | inactive |
| CG13837 | DRSC14687 | 6 | inactive |
| BoYb | DRSC11637 | 4 | inactive |
| CG14071 | DRSC02374 | 6 | inactive |
| CG5096 | DRSC02813 | 3 | inactive |
| CG12682 | DRSC17873 | 13 | inactive |
| Pitslre | DRSC11874 | 7 | inactive |
| Pitslre | DRSC23346 | 7 | inactive |
| CG10435 | DRSC14246 | 9 | inactive |
| CG10435 | DRSC25312 | 2 | inactive |
| CG7691 | DRSC16287 | 6 | inactive |
| CG6790 | DRSC16117 | 2 | inactive |
| twz (tiwaz) | DRSC04069 | 7 | inactive |
| twz (tiwaz) | DRSC25832 | 4 | inactive |
| sd (scalloped) | DRSC20370 | 19 | inactive |
| sd (scalloped) | DRSC37640 | 11 | inactive |
| RpL14 (Ribosomal protein L14) | DRSC11269 | 8 | inactive |
| CG15916 | DRSC19740 | 12 | inactive |
| CG6845 | DRSC08576 | 3 | inactive |
| CG6845 | DRSC26319 | 6 | inactive |
| PNPase (Polynucleotide phosphorylase) | DRSC14304 | 7 | inactive |
| PGS1 (Phosphatidylglycerophosphate synthase 1) | DRSC16304 | 6 | inactive |
| ebd1 (earthbound 1) | DRSC08565 | 7 | inactive |
| ebd1 (earthbound 1) | DRSC29439 | 6 | inactive |
| Cht6 (Chitinase 6) | DRSC18001 | 9 | inactive |
| Cht6 (Chitinase 6) | DRSC18253 | 7 | inactive |
| Cht6 (Chitinase 6) | DRSC23211 | 7 | inactive |
| Cht6 (Chitinase 6) | DRSC28095 | 4 | inactive |
| Mst98Cb (Male-specific RNA 98Cb) | DRSC16750 | 12 | inactive |
| Mst98Cb (Male-specific RNA 98Cb) | DRSC22495 | 7 | inactive |
| Mst98Cb (Male-specific RNA 98Cb) | DRSC25707 | 3 | inactive |
| CG32814 | DRSC17670 | 4 | inactive |
| CG32814 | DRSC26042 | 6 | inactive |
| CG5355 | DRSC02844 | 5 | inactive |
| CG8641 | DRSC11028 | – | inactive |
| CG31659 | DRSC00760 | 2 | inactive |
| CG18599 | DRSC23121 | 5 | inactive |
| CG18599 | DRSC25823 | 5 | inactive |
| CG4991 | DRSC19928 | 6 | inactive |
| Timp (Tissue inhibitor of metalloproteases) | DRSC17082 | 6 | inactive |
| Send1 (Spermathecal endopeptidase 1) | DRSC00482 | 5 | inactive |
| Send1 (Spermathecal endopeptidase 1) | DRSC27719 | 8 | inactive |

9 entries from above in another layout:
{"gene":"twz (tiwaz)","DRSC id":"DRSC04069","mitotic cells, replicate 1":7,"call":"inactive"}
{"gene":"twz (tiwaz)","DRSC id":"DRSC25832","mitotic cells, replicate 1":4,"call":"inactive"}
{"gene":"sd (scalloped)","DRSC id":"DRSC20370","mitotic cells, replicate 1":19,"call":"inactive"}
{"gene":"sd (scalloped)","DRSC id":"DRSC37640","mitotic cells, replicate 1":11,"call":"inactive"}
{"gene":"RpL14 (Ribosomal protein L14)","DRSC id":"DRSC11269","mitotic cells, replicate 1":8,"call":"inactive"}
{"gene":"CG15916","DRSC id":"DRSC19740","mitotic cells, replicate 1":12,"call":"inactive"}
{"gene":"CG6845","DRSC id":"DRSC08576","mitotic cells, replicate 1":3,"call":"inactive"}
{"gene":"CG6845","DRSC id":"DRSC26319","mitotic cells, replicate 1":6,"call":"inactive"}
{"gene":"PNPase (Polynucleotide phosphorylase)","DRSC id":"DRSC14304","mitotic cells, replicate 1":7,"call":"inactive"}
